Reference: doi:10.1101/2025.01.05.631328 (bioRxiv, 2025)
These are yes or no findings as the source states them, for the method shown. In cells and extracts the contact can be indirect. Some binding calls cover weakened binding; strength is not graded here.

Target: MISO isoform 2 (short isoform of human C3orf33) (human) (UniProt Q6P1S2)
Assay: cross-linking

binding: binds
B1: MISO isoform 2 (short isoform of human C3orf33) (protein, UniProt Q6P1S2 44-294)
chain: MAIAGIMLLLRSIRLTSKFTSSSDIPVEFIRRNVKLRGRLRRITENGLEIEHIPITLPIIASLRKEPRGALLVKLAGVELAETGKAWLQKELKPSQLLWFQLLGKENSALFCYLLVSKGGYFSVNLNEEILRRGLGKTVLVKGLKYDSKIYWTVHRNLLKAELTALKKGEGIWKEDSEKESYLEKFKDSWREIWKKDSFLKTTGSDFSLKKESYYEKLKRTYEIWKDNMNNCSLILKFRELISRINFRRKG
